Measurements from the supplement of paper PMC9233669.
Variants at the background level are over-represented here.

Experiments:
biotinyl-Phe-oxazolone = assay: self-aminoacylation, catalytic enhancement (BFO) (fold over background); higher = more active; k-Seq, kA / k0A0; sequences stand for … in GGGAAUGGAUCCACAUCUACGAAUUC…UUCACUGCAGACUUGACGAAGCUG
In short: (§1)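 Mutagenized RNA pools with a 21-nt variable region (0.43 μM) were reacted with each biotinyl-aminoacyl-oxazolone at 2–1250 μM for 90 minutes at room temperature, in 50 μL HEPES/NaCl/KCl/MgCl2/CaCl2 buffer containing 5% acetonitrile at pH 6.9–7.0. RNA captured on streptavidin was quantified by triplicate qPCR and by Illumina sequencing. The fraction reacted for each sequence was fit to a pseudo-first-order model with bootstrapping, and catalytic enhancement is the median kA divided by the uncatalyzed rate, taken as the low-activity peak of a bimodal Gaussian fit.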

biotinyl-Met-oxazolone = assay: self-aminoacylation, catalytic enhancement (BMO) (fold over background); higher = more active; k-Seq, kA / k0A0; sequences stand for … in GGGAAUGGAUCCACAUCUACGAAUUC…UUCACUGCAGACUUGACGAAGCUG
In short: as §1

biotinyl-Leu-oxazolone = assay: self-aminoacylation, catalytic enhancement (BLO) (fold over background); higher = more active; k-Seq, kA / k0A0; sequences stand for … in GGGAAUGGAUCCACAUCUACGAAUUC…UUCACUGCAGACUUGACGAAGCUG
In short: as §1

biotinyl-Ile-oxazolone = assay: self-aminoacylation, catalytic enhancement (BIO) (fold over background); higher = more active; k-Seq, kA / k0A0; sequences stand for … in GGGAAUGGAUCCACAUCUACGAAUUC…UUCACUGCAGACUUGACGAAGCUG
In short: as §1

biotinyl-Val-oxazolone = assay: self-aminoacylation, catalytic enhancement (BVO) (fold over background); higher = more active; k-Seq, kA / k0A0; sequences stand for … in GGGAAUGGAUCCACAUCUACGAAUUC…UUCACUGCAGACUUGACGAAGCUG
In short: as §1

biotinyl-Trp-oxazolone = assay: self-aminoacylation, catalytic enhancement (BWO) (fold over background); higher = more active; k-Seq, kA / k0A0; sequences stand for … in GGGAAUGGAUCCACAUCUACGAAUUC…UUCACUGCAGACUUGACGAAGCUG
In short: as §1

| Sequence | self-aminoacylation (biotinyl-Phe-oxazolone) | self-aminoacylation (biotinyl-Met-oxazolone) | self-aminoacylation (biotinyl-Leu-oxazolone) | self-aminoacylation (biotinyl-Ile-oxazolone) | self-aminoacylation (biotinyl-Val-oxazolone) | self-aminoacylation (biotinyl-Trp-oxazolone) |
| --- | --- | --- | --- | --- | --- | --- |
| AUUUACCUAGGUCACCGGGUG [Fam2.2 aminoacylation ribozyme variant] | 26.5 | 4.23 | 6.09 | 3.61 | 3.08 | 3.83 |
| CAACACUUCAAGCACUCGGUC [Fam1B.1 aminoacylation ribozyme variant] | 1.02 | 1.12 | 1.07 | 1.34 | 1.22 | 0.937 |
| CAACCCUUCAAGCAAUCGGUC [Fam1B.1 aminoacylation ribozyme variant] | 2.9 | 1.22 | 1.42 | 1.42 | 1.44 | 2.72 |
| CAACUUCAAACAAUCGGUCUG [Fam1A.1 aminoacylation ribozyme variant] | 97.7 | 1.7 | 2.61 | 1.57 | 1.53 | 44.8 |
| CAGUUCGCUAAUAGUCGCAAG [Fam3.1 aminoacylation ribozyme variant] | 1.4 | 1.74 | 1.8 | 1.68 | 1.38 | 1.88 |
| CAGUUUGCUAAUAGUCGCCAG [Fam3.1 aminoacylation ribozyme variant] | 10.1 | 1.91 | 2.43 | 1.86 | 2.17 | 2.45 |
| CAGUUUGCUAAUGGUCGCAAG [Fam3.1 aminoacylation ribozyme variant] | 1.5 | 1.59 | 1.96 | 1.97 | 1.29 | 1.63 |
| CAGUUUGCUUAUAGUCGCAAG [Fam3.1 aminoacylation ribozyme variant] | 1.77 | 1.07 | 1.44 | 0.957 | 1.2 | 0.563 |
| CCAAACGUCAAGCAAUCGGUC [Fam1B.1 aminoacylation ribozyme variant] | 1.38 | 1.52 | 1.46 | 1.42 | 1.97 | 1.16 |
| CCAAACUGCAAGCAAUCGGUC [Fam1B.1 aminoacylation ribozyme variant] | 1.47 | 1.26 | 1.4 | 1.25 | 1.23 | 0.742 |
| CCAAACUUCAAGCAAUCGAUC [Fam1B.1 aminoacylation ribozyme variant] | 1.17 | 0.433 | 0.522 | 0.62 | 0.655 | 0.635 |
| CCAAACUUCAAGCCAUCGGUC [Fam1B.1 aminoacylation ribozyme variant] | 1.07 | 1.28 | 1.03 | 1.15 | 1.18 | 1.01 |
| CCACAAUUCAAGAAAUCGGUC [Fam1B.1 aminoacylation ribozyme variant] | 1.38 | 0.78 | 0.866 | 0.949 | 0.906 | 1.41 |
| CCACAAUUCACGCAAUCGGUC [Fam1B.1 aminoacylation ribozyme variant] | 1.95 | 1.67 | 1.78 | 1.8 | 2.05 | 1.57 |
| CCACACAUCAAGUAAUCGGUC [Fam1B.1 aminoacylation ribozyme variant] | 0.926 | 1.01 | 0.915 | 0.992 | 0.745 | 0.742 |
| CCACACCUCAAACAAUCGGUC [Fam1B.1 aminoacylation ribozyme variant] | 7.05 | 1.04 | 1.29 | 1.24 | 1.13 | 4.47 |
| CCACACCUCAAGCAAUCUGUC [Fam1B.1 aminoacylation ribozyme variant] | 0.689 | 0.427 | 0.364 | 0.463 | 0.631 | 0.339 |
| CCACACUACAAGCAACCGGUC [Fam1B.1 aminoacylation ribozyme variant] | 1.03 | 0.649 | 0.948 | 1.29 | 0.674 | 0.793 |
| CCACACUACAAGCAAUUGGUC [Fam1B.1 aminoacylation ribozyme variant] | 0.908 | 0.546 | 0.529 | 0.758 | 0.839 | 0.594 |
| CCACACUACAAGCAGUCGGUC [Fam1B.1 aminoacylation ribozyme variant] | 0.944 | 0.97 | 0.972 | 0.9 | 1.04 | 0.95 |
| CCACACUCCAAGCAAGCGGUC [Fam1B.1 aminoacylation ribozyme variant] | 0.791 | 0.857 | 0.855 | 1.38 | 1.07 | 0.741 |
| CCACACUCCAAGCAAUCGGAC [Fam1B.1 aminoacylation ribozyme variant] | 0.729 | 0.74 | 1.37 | 1.09 | 0.937 | 0.574 |
| CCACACUCCAAGCAAUCGGUU [Fam1B.1 aminoacylation ribozyme variant] | 1.22 | 1.35 | 1.11 | 1.38 | 1.47 | 1.28 |
| CCACACUGCAAGCAAUCAGUC [Fam1B.1 aminoacylation ribozyme variant] | 1.1 | 0.584 | 0.852 | 0.79 | 0.741 | 0.551 |
| CCACACUGCAAGCAAUCGUUC [Fam1B.1 aminoacylation ribozyme variant] | 0.774 | 0.893 | 0.703 | 0.949 | 0.996 | 0.711 |
| CCACACUGCAAGCAGUCGGUC [Fam1B.1 aminoacylation ribozyme variant] | 0.623 | 1.04 | 1.58 | 1.36 | 1.75 | 1.25 |

| Sequence | self-aminoacylation (biotinyl-Phe-oxazolone) | self-aminoacylation (biotinyl-Met-oxazolone) | self-aminoacylation (biotinyl-Leu-oxazolone) | self-aminoacylation (biotinyl-Ile-oxazolone) | self-aminoacylation (biotinyl-Val-oxazolone) | self-aminoacylation (biotinyl-Trp-oxazolone) |
| --- | --- | --- | --- | --- | --- | --- |
| CCACACUGCAAGUAAUCGGUC [Fam1B.1 aminoacylation ribozyme variant] | 0.95 | 0.919 | 1.11 | 0.952 | 1.04 | 1.03 |
| CCACACUUAAAGCAAUUGGUC [Fam1B.1 aminoacylation ribozyme variant] | 0.759 | 0.723 | 0.623 | 0.855 | 0.765 | 0.523 |
| CCACACUUACAGCAAUCGGUC [Fam1B.1 aminoacylation ribozyme variant] | 1.08 | 0.881 | 0.739 | 0.991 | 1.07 | 0.937 |
| CCACACUUCAAACAAUCGGUA [Fam1B.1 aminoacylation ribozyme variant] | 1.62 | 0.947 | 0.734 | 0.873 | 1.02 | 1.47 |
| CCACACUUCAAAGAAUCGGUC [Fam1B.1 aminoacylation ribozyme variant] | 12.1 | 0.888 | 1.17 | 0.988 | 0.955 | 9.57 |
| CCACACUUCAAGAAAUCGGUA [Fam1B.1 aminoacylation ribozyme variant] | 0.659 | 0.99 | 1.11 | 0.926 | 0.903 | 0.682 |
| CCACACUUCAAGAAAUUGGUC [Fam1B.1 aminoacylation ribozyme variant] | 0.563 | 0.592 | 0.698 | 0.66 | 0.516 | 0.449 |
| CCACACUUCAAGCAAACGUUC [Fam1B.1 aminoacylation ribozyme variant] | 0.768 | 0.613 | 0.546 | 0.717 | 0.854 | 0.573 |
| CCACACUUCAAGCAACCGCUC [Fam1B.1 aminoacylation ribozyme variant] | 8.07 | 1.78 | 1.62 | 1.92 | 2.09 | 1.59 |
| CCACACUUCAAGCAACCGGUA [Fam1B.1 aminoacylation ribozyme variant] | 1.34 | 1.35 | 1.42 | 1.24 | 1.47 | 0.636 |
| CCACACUUCAAGCAAGCUGUC [Fam1B.1 aminoacylation ribozyme variant] | 0.716 | 0.451 | 0.404 | 0.504 | 0.565 | 0.346 |
| CCACACUUCAAGCAAUAGGUA [Fam1B.1 aminoacylation ribozyme variant] | 1.05 | 0.652 | 0.781 | 0.903 | 0.84 | 0.552 |
| CCACACUUCAAGCAAUAGGUC [Fam1B.1 aminoacylation ribozyme variant] | 1.22 | 0.543 | 0.539 | 0.643 | 0.682 | 0.559 |
| CCACACUUCAAGCAAUCGAUA [Fam1B.1 aminoacylation ribozyme variant] | 0.791 | 0.579 | 0.47 | 0.733 | 0.784 | 0.339 |
| CCACACUUCAAGCAAUCGAUU [Fam1B.1 aminoacylation ribozyme variant] | 0.863 | 0.726 | 0.644 | 0.879 | 0.855 | 0.894 |
| CCACACUUCAAGCAAUCGUUA [Fam1B.1 aminoacylation ribozyme variant] | 1.1 | 0.884 | 0.751 | 1.02 | 1.22 | 0.757 |
| CCACACUUCAAGCAAUCGUUU [Fam1B.1 aminoacylation ribozyme variant] | 0.913 | 0.937 | 0.785 | 1.29 | 1.22 | 1.1 |
| CCACACUUCAAGCAAUCUGUU [Fam1B.1 aminoacylation ribozyme variant] | 0.687 | 0.602 | 0.52 | 0.605 | 0.66 | 0.348 |
| CCACACUUCAAGCAAUGAGUC [Fam1B.1 aminoacylation ribozyme variant] | 1.35 | 0.484 | 0.564 | 0.576 | 0.568 | 0.519 |
| CCACACUUCAAGCAAUGCGUC [Fam1B.1 aminoacylation ribozyme variant] | 1.08 | 0.967 | 0.86 | 1.03 | 0.963 | 1.06 |
| CCACACUUCAAGCAAUGGGGC [Fam1B.1 aminoacylation ribozyme variant] | 1.33 | 1.57 | 1.19 | 1.43 | 1.57 | 1.23 |
| CCACACUUCAAGCAAUUGGCC [Fam1B.1 aminoacylation ribozyme variant] | 2.34 | 2.58 | 3.18 | 2.77 | 4.13 | 3.51 |
| CCACACUUCAAGCAAUUGGUU [Fam1B.1 aminoacylation ribozyme variant] | 1.04 | 1 | 1.23 | 1.16 | 1.29 | 1.11 |
| CCACACUUCAAGCACUAGGUC [Fam1B.1 aminoacylation ribozyme variant] | 0.813 | 0.413 | 0.427 | 0.524 | 0.538 | 0.669 |
| CCACACUUCAAGCACUCGGUA [Fam1B.1 aminoacylation ribozyme variant] | 0.635 | 1.31 | 1.51 | 1.29 | 1.53 | 1.56 |
